# PubChem BioAssay AID720504 (National Center for Advancing Translational Sciences (NCATS), 2013)
# Protein sequences, listed by entry. Tags and fused reporters are not part of them.
# UniProt P53350, whole entry, looked up: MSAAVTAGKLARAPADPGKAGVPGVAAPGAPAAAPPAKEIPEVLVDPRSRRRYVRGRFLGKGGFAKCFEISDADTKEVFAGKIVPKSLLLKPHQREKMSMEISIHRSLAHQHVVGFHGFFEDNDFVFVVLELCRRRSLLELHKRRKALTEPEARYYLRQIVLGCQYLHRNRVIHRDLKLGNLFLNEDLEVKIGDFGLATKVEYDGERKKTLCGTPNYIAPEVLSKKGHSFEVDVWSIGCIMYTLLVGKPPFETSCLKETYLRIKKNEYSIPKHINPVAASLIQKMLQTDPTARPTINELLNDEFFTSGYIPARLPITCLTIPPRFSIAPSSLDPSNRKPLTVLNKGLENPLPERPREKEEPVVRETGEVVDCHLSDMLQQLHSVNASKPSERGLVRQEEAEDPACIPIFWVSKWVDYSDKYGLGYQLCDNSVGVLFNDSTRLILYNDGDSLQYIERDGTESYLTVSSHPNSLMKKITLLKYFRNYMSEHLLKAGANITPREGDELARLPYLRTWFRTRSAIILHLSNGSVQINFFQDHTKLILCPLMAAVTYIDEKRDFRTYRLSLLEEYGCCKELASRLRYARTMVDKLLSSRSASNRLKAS
# Where “and” joins values, the source holds several entries; their conditions need not be identical. Equal values may be shown once. About 10,000 (2.8%) of roughly 360,000 compounds were called active. Inconclusive means that the source gave no clear call. Such entries were picked first, then a sample of the others. The call rests on the fitted dose curve; in most records, active means well fitted inhibition curve with a large enough effect; inconclusive means small, poorly fitted or top-dose-only effect; inactive means flat fitted curve, though single readings scatter. Potencies of inconclusive entries are doubtful fits and often do not repeat.
# Biological target: Serine/threonine-protein kinase PLK1 (Homo sapiens) (UniProt P53350)
# Assay: qHTS for Inhibitors of PLK1-PDB (polo-like kinase 1 - polo-box domain): Primary Screen; further: nearly all actives have a fitted effect of over 65% in size; on max response, negative = inhibition: series mostly up to about 57 µM
# Settings: Plk1 PBD binding of FITC phosphopeptide, fluorescence polarization
# On the % scale 0 is the no-effect control and ±100 the full control effect; potency means the concentration at half of the fitted maximal effect.
Structure (SMILES),"max response, negative = inhibition",Potency
CC1CCN(C(=O)c2nc[nH]c2C(=O)N2CCc3ccccc3C2)CC1,inactive: 1.22%,
Cc1cc(Br)cn2c(Cc3ccsc3)c(-c3ccc(C#N)cc3)nc12,,"inconclusive: 29.9 µM [inhibitor, partial curve]"
Cc1cc(Cl)ccc1NC(=S)N(CCCN1CCOCC1)Cc1cccs1,,active: 10.6 µM
S=C(Nc1cccnc1)Nc1cccc2cnccc12,,"inconclusive: 21.2 µM [inhibitor, single point]"
CCCCCC1CC(CC/C(C)=N/NC(N)=O)C(=O)O1 (stereo not given),inactive: -1.13%,
Cc1cc(=S)[nH]c(=S)[nH]1,,"inconclusive: 7.52 µM [inhibitor, full curve]"
Cc1ccc(SCc2cc(=O)[nH]c(SCC(=O)Nc3cc(Cl)ccc3Cl)n2)cc1,,"inconclusive: 29.9 µM [inhibitor, single point]"
COc1ccc(S(=O)(=O)N2CCC(C(=O)NCc3cccs3)CC2)cc1,inactive: 2.68%,
CCc1nnc(NS(=O)(=O)c2ccc(NC(=S)NC(=O)c3ccc(OC)c(OC)c3)cc2)s1,,"inconclusive: 33.6 µM [inhibitor, partial curve]"
O=C(O)c1ccccc1N=Nc1c(O)[nH]c2ccc([N+](=O)[O-])cc12,,"inconclusive: 18.9 µM [inhibitor, partial curve]"
CCN1CCN(Cc2ccc(NC(=O)c3ccc(C)c(NC(=O)c4ccno4)c3)cc2C(F)(F)F)CC1,inactive: -3.24% and inactive: -11%,
CCSC1=C(C#N)C(c2ccc(C)o2)CC(=O)N1 (stereo not given),inactive: -4.82%,
Cc1ccc(S(=O)(=O)CNC(=S)c2ccc3ccccc3c2)cc1,,"inconclusive: 15 µM [inhibitor, partial curve]"
CCn1c(Cc2c(C)[nH]c3ccccc23)nnc1SCC(=O)NCc1ccco1,,"inconclusive: 29.9 µM [inhibitor, single point]"
O=C(NCCN1Cc2ccccc2C1=O)c1cccs1,,"inconclusive: 23.8 µM [inhibitor, single point]"
COc1ccc(S(=O)(=O)NCC2CCC(C(=O)NCc3ccco3)CC2)cc1 (stereo not given),,active: 10.6 µM
CCOC(=O)C1CCN(C(=O)CCNS(=O)(=O)c2cc(Br)cnc2N)CC1,inconclusive: -6.22% [inhibitor],
CC(=O)Nc1cccc(NC(=O)COc2ccccc2C)c1,inactive: -1.07%,
CCN1CCCC1CNC(=O)c1cc(COc2ccc(C)c(C)c2)on1 (stereo not given),,"inconclusive: 33.6 µM [inhibitor, partial curve]"
CC(C)NC(=S)N/N=C1\CCCCC1C1CCCCC1 (stereo not given),,"inconclusive: 16.8 µM [inhibitor, partial curve]"
CCNS(=O)(=O)c1ccc(NC(=S)NCC2CCCO2)cc1 (stereo not given),,active: 23.8 µM
COc1ccc(OC)c(/C=C/C(=O)N(C)CC(=O)Nc2cc(C)ccc2C)c1,inactive: -2.32%,
CN(C)S(=O)(=O)N1CCC(Oc2cccc(C(=O)NC3CCCCC3)c2)CC1,,active: 15 µM
CCC1CCCCN1CCCNC(=O)C1CCCN(c2ncnc3c2nc2n3CCCCC2)C1 (stereo not given),,"inconclusive: 26.7 µM [inhibitor, partial curve]"
S=c1[nH]nc(C2CCCCC2)n1/N=C/c1ccccn1,inconclusive: -38.8% [inhibitor],

# Entries from the list above that have a halogen (five):
Structure (SMILES),"max response, negative = inhibition",Potency
Cc1cc(Br)cn2c(Cc3ccsc3)c(-c3ccc(C#N)cc3)nc12,,"inconclusive: 29.9 µM [inhibitor, partial curve]"
Cc1cc(Cl)ccc1NC(=S)N(CCCN1CCOCC1)Cc1cccs1,,active: 10.6 µM
Cc1ccc(SCc2cc(=O)[nH]c(SCC(=O)Nc3cc(Cl)ccc3Cl)n2)cc1,,"inconclusive: 29.9 µM [inhibitor, single point]"
CCN1CCN(Cc2ccc(NC(=O)c3ccc(C)c(NC(=O)c4ccno4)c3)cc2C(F)(F)F)CC1,inactive: -3.24% and inactive: -11%,
CCOC(=O)C1CCN(C(=O)CCNS(=O)(=O)c2cc(Br)cnc2N)CC1,inconclusive: -6.22% [inhibitor],

# More results follow.

Structure (SMILES),"max response, negative = inhibition",Potency
O=c1[nH]cc(C=NNc2ccccc2)c(=O)[nH]1,inactive: -28.3%,
O=C1CCC(OCc2ccccc2)CCN1[C@H](CSc1ccccc1)Cc1ccccc1 (stereo not given in full),inactive: -7.84%,
O=C(c1ccco1)N1CCN(C(=O)C2CCCN(S(=O)(=O)Cc3ccccc3)C2)CC1 (stereo not given),,"inconclusive: 23.8 µM [inhibitor, partial curve]"
O=C(c1ccc[nH]c1=S)N1CCN(S(=O)(=O)c2ccc(Br)cc2Cl)CC1,,active: 26.7 µM
O=C(CCCc1cccs1)Nc1nc2c(s1)CCCC2,,"inconclusive: 26.7 µM [inhibitor, partial curve]"
NC(=S)NN=Cc1ccc(-c2ccc(S(=O)(=O)Nc3ncccn3)cc2)o1,,active: 29.9 µM
C/[N+]([O-])=C\CC(=O)c1ccc(-c2ccccc2)cc1,,active: 21.2 µM
NC(=O)c1c(NC(=O)C2c3ccccc3Oc3ccccc32)sc2c1CCCCC2,inconclusive: -35.8% [inhibitor],
C=CC#CC1(O)CC(C)[N+](C)(C)CC1C (stereo not given),,active: 21.2 µM
COc1ccccc1NCCC(=O)OCC(=O)NC1CCCCC1,inactive: 3.38%,
CCC(SCC(=O)OC)C(=O)Nc1nnc(C(C)C)s1 (stereo not given),inconclusive: -35.8% [inhibitor],
CCOC(=O)c1ccc(CC2S/C(=C(\C#N)C(C)=O)NC2=O)cc1 (stereo not given),,"inconclusive: 26.7 µM [inhibitor, partial curve]"
CNCCCOc1ccc(C)cc1OC,inactive: -10.2%,
COc1ccc(S(=O)(=O)Nc2ccccc2C(F)(F)F)cc1,inactive: 1.99%,
COC(=O)c1ccc(CSc2ccccc2NC(=S)Nc2cccc(SC)c2)o1,,"inconclusive: 26.7 µM [inhibitor, partial curve]"
Cc1ccc(C(=O)NC(=S)Nc2ccc(N3CCOCC3)cc2)cc1C,,"inconclusive: 26.7 µM [inhibitor, partial curve]"
CN(C(=O)CCS(=O)(=O)c1ccc2c(c1)oc(=O)n2C)C1CCCCC1,,"inconclusive: 21.2 µM [inhibitor, partial curve]"
C=C1C(=O)c2sccc2C(c2ccc(OC)c(OC)c2)C1COC(C)=O (stereo not given),,active: 26.7 µM
CCC(=O)OCCNc1cc(SCCC(=O)OC)c2nonc2c1[N+](=O)[O-],,"inconclusive: 21.2 µM [inhibitor, partial curve]"
CCN(C(=O)c1cnc(N2CCN(c3ncccn3)CC2)c2ccccc12)c1cccc(Cl)c1,inactive: -1.97% and inactive: 1.82%,
Cc1sc(NC(=O)COc2ccccc2)c(C#N)c1C,,active: 7.52 µM
CCOC(=O)C1CCN(C2=C(NS(=O)(=O)c3ccc(Br)cc3)C(=O)c3ccccc3C2=O)CC1,inconclusive: -30.9% [inhibitor],
O=C(NC1CCN(C(=S)NCc2ccco2)CC1)c1ccc(F)cc1,,active: 23.8 µM
N#CC1=C(N)SC(N)=C(C#N)C1c1ccnc2ccccc12,,"inconclusive: 13.4 µM [inhibitor, partial curve]"
O=[N+]([O-])c1ccc2c(c1N1CCCCC1)=NC1(CCCCC1)[N+]=2[O-],,active: 21.2 µM

Structure (SMILES),"max response, negative = inhibition",Potency
O=C1CC(SC2=NCCS2)C(=O)N1c1ccc(Cl)cc1 (stereo not given),inactive: -1.84%,
CN(CCCN1CCOCC1)C(=O)c1cc(COc2ccc(F)cc2F)on1,,"inconclusive: 29.9 µM [inhibitor, single point]"
COc1ccc(CNC(=O)COc2ccc(C(=O)c3ccc(F)cc3)cc2)cc1,inactive: -4.42%,
Cc1ccc2c(cnn2C(=O)CCC(=O)NCc2ccccc2Cl)c1,,"inconclusive: 26.7 µM [inhibitor, partial curve]"
O=C1CCCC/C1=C/Nc1cccc(C(F)(F)F)c1,inactive: -11%,
O=C(Nc1ccnn1C1CCN(C/C=C/c2ccccc2)CC1)C1CCCC1,inactive: 0.635%,
CCn1cc(C(=O)Nc2sc(C)c(C)c2C(=O)OC)cn1,,"inconclusive: 21.2 µM [inhibitor, partial curve]"
CCOC(=O)c1cc(NC(=O)N2CCOCC2)c(C)nc1C,,"inconclusive: 23.8 µM [inhibitor, single point]"
CCOC(=O)C1CCN(C(=O)Cn2nc(C)c3c(C)n(-c4ccccc4)nc3c2=O)CC1,,"inconclusive: 23.8 µM [inhibitor, partial curve]"
CNc1nc(-c2ccc3c(c2)CCN3S(=O)(=O)c2ccccc2)c(C)s1,,"inconclusive: 29.9 µM [inhibitor, single point]"
CCOc1ccc(C(=O)Nc2ccc(N3CCN(C)CC3)cc2)cc1Br,inactive: -1.2%,
Cc1cc2n(n1)C(c1ccccc1)CC(c1ccc(Br)cc1)=N2 (stereo not given),inconclusive: -36.7% [inhibitor],
CC(C)(C)C1CCC(OCC(O)CN2CCN(c3ccccn3)CC2)CC1 (stereo not given),inactive: -22.5%,
CCC(C(=O)NCCN1CCN(C)CC1)n1c(C)c2cnn(-c3ccccc3)c(=O)c2c1C (stereo not given),inactive: -9.98%,
COc1ccc(-c2cc(-c3ccccc3)c(C#N)c(=S)[nH]2)cc1,,"inconclusive: 26.7 µM [inhibitor, partial curve]"
CCC(=O)Nc1nnc(SCc2ccccc2F)s1,inactive: -13.7%,
CN1C(=O)C(=O)/C(=C(/O)c2ccc(Br)cc2)C1c1ccccc1F (stereo not given),,active: 33.6 µM
Nc1nc(SCC(=O)C23CC4CC(CC(C4)C2)C3)n[nH]1,,"inconclusive: 26.7 µM [inhibitor, single point]"
CN1CCCN(C(=O)c2cccc(Cl)c2)CC1,inactive: 5.02%,
COc1ccc(NC(C)=O)cc1S(=O)(=O)N1CCN(C/C=C/c2ccccc2)CC1,inactive: -2.81%,
O=C(Nc1nc(-c2cccs2)c(-c2ccccc2)s1)c1ccco1,inactive: -8.95%,
CC(C)(C)Cc1nnc(NS(=O)(=O)c2ccccc2)s1,,active: 26.7 µM
CSc1ncccc1C(=O)OCC(=O)c1cccc(Br)c1,,"inconclusive: 26.7 µM [inhibitor, single point]"
O=C(Nc1cc(S(=O)(=O)N2CCCCC2)ccc1O)c1ccccc1NS(=O)(=O)c1ccc(F)c(F)c1,,"inconclusive: 26.7 µM [inhibitor, single point]"
COc1cc(C(=S)N2CCCC2)ccc1OCc1ccc(C)cc1,,"inconclusive: 26.7 µM [inhibitor, partial curve]"
